Measured values: patent US11241453B2, “Arsenic compositions” (Eupharma Pty Ltd, priority 2016, dated 2022)
At least one structure is not confirmed: it was looked up by name or label, or the drawing left a doubt.

Assay type: physicochemical

O=[As][O-].[Na+] [sodium meta arsenite, reference compound]
Dissolution speed compared with NaHAs2O4: more slowly
